In patent US20230255884A1, “FINISHED FIBROUS SRUCTURES AND METHODS OF THEIR USE AND PREPARATION” (CLEXIO BIOSCIENCES LTD., priority 2019, published 2023):
Where two headings read alike, the source gives them in different places.

Tests used:
[1] = Example 20: loading kinetics, aqueous 10% lidocaine, 10% PEG 400, 10% propylene glycol, 2% Polysorbate 80, 60° C., pre-cut shapes of 91.4% polyamide/8.6% elastane, squeezed; type: physicochemical; conditions: loading time 60 min; Shape A
[2] = not given; remark: listed apart in the source

SMILES: CCN(CC)CC(=O)Nc1c(C)cccc1C [Lidocaine, lidocaine]
- % Add on [1]: 45.729%
- lidocaine concentration in the mother liquor (0.1% liquor): 0.457 mg/mL
- lidocaine concentration in the mother liquor (0.4% liquor): 1.489 mg/mL
- lidocaine concentration in the mother liquor (1% liquor): 2.659 mg/mL
- lidocaine concentration in the mother liquor ([2]; 0.1%/25° C. liquor): 0.995 mg/mL
- lidocaine concentration in the mother liquor ([2]; 0.1%/80° C. liquor): 0.862 mg/mL
